Measurements from patent publication US20250041307A1, “Uses of Bicyclic Compounds for the Treatment of Diseases” (Athira Pharma, Inc., priority 2021, published 2025).
At least one compound was matched to its structure with a doubt left.

The molecules below were run on MDCK cells (assay: Cell scattering behavior assay). Details: with 5 ng/mL HGF, 24 hours, normalized particle count compared to HGF treatment alone.
Assay type: cell-based
Parameters: key: − indicates that the compound failed to significantly promote cell scattering behavior; + indicates maximum potency at or above 100 nM; ++ indicates maximum potency at or above 10 nM; +++ indicates maximum potency at or above 1 nM; ++++ indicates maximum potency at or above 0.1 nM
Description: MDCK cells were grown under normal conditions and observed to spontaneously form tight colonies as they proliferate. MDCK cells respond to HGF treatment by moving away from each other (scattering), which is quantified to assess the amount of HGF/MET activation in the cell population. In this experiment, MDCK cells were plated in a 96-well format, treated with HGF and exemplary compounds, fluorescently stained, imaged in large fields, and scattering behavior was quantified. Quantification was determined by analyzing the number of continuous groups of cells compared to the total stained area imaged (normalized particle counts).
MDCK cells were plated at low density in black-walled imaging plates and allowed to attach overnight at 37° C. and 5% CO2 in DMEM+10% FBS. Cells were then starved to 2 hours in DMEM without FBS (“starve media”). Samples containing exemplary compounds were prepared in DMEM without FBS and included 5 ng/mL HGF protein (“treatment media”). A control curve was also prepared for each plate using HGF concentrations of 0, 5, 10, and 20 ng/mL. Starve media was replaced with treatment media and cells were incubated for 24 hours at 37° C. and 5% CO2.
After incubation, cells were fixed by replacing treatment media with cold ethanol and incubating for 20 minutes at 4° C. Cells were then rehydrated by washing with PBS and then with stain solution (fluorescent wheat germ agglutinin; WGA488 at 20 μg/mL in PBS). Cells were incubated with stain solution 30 minutes at room temperature after which stain solution was replaced with fresh PBS.
Fields of cells were imaged using an iCyte high content imager in the green wavelength. Images were converted to binary and analyzed for particle size and particle count. For the purpose of analysis, an individual cell touching no other cells or separated colonies of cells were identified as particles, and particle counts were normalized by the total signal area to account for differences in cell number. […] Compound potency was assessed by statistical increase in normalized particle count compared to HGF treatment alone.
For CC1C(=O)N(CC2CCC2)CC2N(C(=O)c3ccc(OC(F)F)cc3)CCC(=O)N12 (stereo not drawn) [Compound 14], the Potency was “+++ (+++ indicates maximum potency at or above 1 nM)”. With CC1C(=O)N(CCCC(F)(F)F)CC2N(Cc3ccc(OC(F)F)cc3)CCC(=O)N12 (stereo not drawn) [Compound 37] the Potency was “−”. With CC1C(=O)N(CCC(F)(F)F)CC2N(Cc3ccc(OC(F)F)cc3)CCC(=O)N12 (stereo not drawn) [Compound 52] the Potency was “−”.
